The record followed here is publication doi:10.1101/2025.06.12.659263.

Chains of the proteins cited; added tags and fusions are not shown. Lines headed by an entry give the natural chain unless they say otherwise; changes in a name come on top. Residues count along the entry.
UniProt P23201: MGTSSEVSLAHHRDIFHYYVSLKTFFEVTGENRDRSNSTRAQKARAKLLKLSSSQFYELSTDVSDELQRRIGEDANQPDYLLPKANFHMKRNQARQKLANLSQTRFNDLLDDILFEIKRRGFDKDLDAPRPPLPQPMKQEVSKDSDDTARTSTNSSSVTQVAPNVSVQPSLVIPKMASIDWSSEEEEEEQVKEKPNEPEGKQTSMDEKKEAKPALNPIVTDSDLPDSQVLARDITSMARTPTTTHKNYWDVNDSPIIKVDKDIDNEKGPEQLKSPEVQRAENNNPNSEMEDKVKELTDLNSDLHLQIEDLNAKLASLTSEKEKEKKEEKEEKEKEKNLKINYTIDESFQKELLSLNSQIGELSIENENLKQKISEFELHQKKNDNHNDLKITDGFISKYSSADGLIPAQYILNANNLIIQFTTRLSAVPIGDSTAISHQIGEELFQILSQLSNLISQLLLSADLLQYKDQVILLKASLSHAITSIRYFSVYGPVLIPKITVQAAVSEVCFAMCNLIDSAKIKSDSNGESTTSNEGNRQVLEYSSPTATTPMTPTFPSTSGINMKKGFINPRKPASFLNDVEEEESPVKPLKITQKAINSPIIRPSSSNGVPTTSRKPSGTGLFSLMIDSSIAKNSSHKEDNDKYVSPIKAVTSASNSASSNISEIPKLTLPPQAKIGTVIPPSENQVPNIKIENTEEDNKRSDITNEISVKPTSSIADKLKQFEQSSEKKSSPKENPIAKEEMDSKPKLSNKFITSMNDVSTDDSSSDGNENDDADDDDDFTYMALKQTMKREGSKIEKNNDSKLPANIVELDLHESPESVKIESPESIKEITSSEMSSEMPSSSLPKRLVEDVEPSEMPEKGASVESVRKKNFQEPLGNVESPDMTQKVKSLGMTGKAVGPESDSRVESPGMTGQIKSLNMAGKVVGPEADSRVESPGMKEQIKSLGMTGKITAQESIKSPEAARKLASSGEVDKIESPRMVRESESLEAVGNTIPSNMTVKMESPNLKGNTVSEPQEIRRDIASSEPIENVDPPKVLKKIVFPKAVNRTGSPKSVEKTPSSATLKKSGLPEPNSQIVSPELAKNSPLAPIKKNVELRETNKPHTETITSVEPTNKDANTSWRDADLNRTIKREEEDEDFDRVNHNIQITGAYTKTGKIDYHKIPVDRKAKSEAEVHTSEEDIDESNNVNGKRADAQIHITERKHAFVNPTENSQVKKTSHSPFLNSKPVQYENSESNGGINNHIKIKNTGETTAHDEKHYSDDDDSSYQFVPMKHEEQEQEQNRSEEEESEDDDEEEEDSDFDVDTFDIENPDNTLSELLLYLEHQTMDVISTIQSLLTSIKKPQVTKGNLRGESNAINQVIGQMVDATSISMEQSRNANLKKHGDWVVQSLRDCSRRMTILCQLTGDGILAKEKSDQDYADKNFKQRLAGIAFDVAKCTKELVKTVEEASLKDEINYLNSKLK
SHD1CRU: residues 1-124 of P23201
UniProt P43597: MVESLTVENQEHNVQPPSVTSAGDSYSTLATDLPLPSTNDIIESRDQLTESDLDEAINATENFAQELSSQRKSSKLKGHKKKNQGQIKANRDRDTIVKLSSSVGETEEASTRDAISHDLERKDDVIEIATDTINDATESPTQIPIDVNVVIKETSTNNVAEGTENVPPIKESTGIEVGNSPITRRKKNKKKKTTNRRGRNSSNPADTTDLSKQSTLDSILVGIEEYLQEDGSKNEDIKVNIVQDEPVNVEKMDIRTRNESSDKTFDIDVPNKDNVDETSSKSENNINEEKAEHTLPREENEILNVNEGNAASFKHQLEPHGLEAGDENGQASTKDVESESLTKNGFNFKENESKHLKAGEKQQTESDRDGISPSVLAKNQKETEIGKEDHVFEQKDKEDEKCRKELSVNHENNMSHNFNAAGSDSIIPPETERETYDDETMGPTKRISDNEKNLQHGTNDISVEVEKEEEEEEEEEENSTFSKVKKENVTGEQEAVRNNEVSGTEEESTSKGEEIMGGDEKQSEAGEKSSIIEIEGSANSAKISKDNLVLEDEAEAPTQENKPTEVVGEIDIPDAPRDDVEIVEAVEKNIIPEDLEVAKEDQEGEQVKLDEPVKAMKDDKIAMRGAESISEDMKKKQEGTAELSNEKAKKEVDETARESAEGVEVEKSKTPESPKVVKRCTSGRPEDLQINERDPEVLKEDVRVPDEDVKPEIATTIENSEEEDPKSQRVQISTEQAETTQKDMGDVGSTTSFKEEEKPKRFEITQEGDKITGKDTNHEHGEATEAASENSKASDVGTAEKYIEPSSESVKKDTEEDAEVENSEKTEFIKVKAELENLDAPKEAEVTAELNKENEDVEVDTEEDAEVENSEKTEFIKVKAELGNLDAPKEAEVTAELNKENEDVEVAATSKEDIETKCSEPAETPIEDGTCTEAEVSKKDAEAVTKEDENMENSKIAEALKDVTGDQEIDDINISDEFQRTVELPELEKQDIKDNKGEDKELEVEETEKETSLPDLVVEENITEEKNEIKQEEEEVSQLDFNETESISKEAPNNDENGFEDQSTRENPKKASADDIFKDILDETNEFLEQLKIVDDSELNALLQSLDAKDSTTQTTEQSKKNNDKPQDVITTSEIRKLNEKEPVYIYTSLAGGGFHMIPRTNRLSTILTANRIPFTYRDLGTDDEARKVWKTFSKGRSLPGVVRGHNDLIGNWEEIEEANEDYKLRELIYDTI

Where two headings read alike, the source gives them in different places. Results are given in words; binding and its absence hold for the method and conditions named. In cells and extracts the contact can be indirect. Some entries that bind do so weakly or less than the wild type.

Experiment in all cases: split reporter
In one assay the target is T1, Msb3CRU (S. cerevisiae) (UniProt P48566).
T1 sequence: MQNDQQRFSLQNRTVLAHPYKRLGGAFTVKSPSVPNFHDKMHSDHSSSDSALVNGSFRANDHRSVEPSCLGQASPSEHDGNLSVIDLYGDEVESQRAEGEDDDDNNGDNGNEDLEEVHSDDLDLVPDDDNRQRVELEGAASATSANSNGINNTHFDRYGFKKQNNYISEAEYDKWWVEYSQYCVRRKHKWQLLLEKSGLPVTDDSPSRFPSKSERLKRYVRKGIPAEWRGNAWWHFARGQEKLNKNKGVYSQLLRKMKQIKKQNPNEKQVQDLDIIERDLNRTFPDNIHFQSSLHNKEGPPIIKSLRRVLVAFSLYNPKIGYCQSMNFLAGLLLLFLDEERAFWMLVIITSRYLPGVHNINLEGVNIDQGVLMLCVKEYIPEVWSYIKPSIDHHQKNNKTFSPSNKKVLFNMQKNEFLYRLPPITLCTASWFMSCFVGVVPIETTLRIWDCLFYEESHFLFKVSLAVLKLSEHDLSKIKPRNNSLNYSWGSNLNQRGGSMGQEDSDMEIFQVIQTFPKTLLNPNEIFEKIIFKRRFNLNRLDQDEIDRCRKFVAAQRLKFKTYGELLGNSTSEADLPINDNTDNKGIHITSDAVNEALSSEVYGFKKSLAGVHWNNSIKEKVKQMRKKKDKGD

The next assay has as its target T2, Msb4CRU (S. cerevisiae) (UniProt Q12317).
T2 sequence: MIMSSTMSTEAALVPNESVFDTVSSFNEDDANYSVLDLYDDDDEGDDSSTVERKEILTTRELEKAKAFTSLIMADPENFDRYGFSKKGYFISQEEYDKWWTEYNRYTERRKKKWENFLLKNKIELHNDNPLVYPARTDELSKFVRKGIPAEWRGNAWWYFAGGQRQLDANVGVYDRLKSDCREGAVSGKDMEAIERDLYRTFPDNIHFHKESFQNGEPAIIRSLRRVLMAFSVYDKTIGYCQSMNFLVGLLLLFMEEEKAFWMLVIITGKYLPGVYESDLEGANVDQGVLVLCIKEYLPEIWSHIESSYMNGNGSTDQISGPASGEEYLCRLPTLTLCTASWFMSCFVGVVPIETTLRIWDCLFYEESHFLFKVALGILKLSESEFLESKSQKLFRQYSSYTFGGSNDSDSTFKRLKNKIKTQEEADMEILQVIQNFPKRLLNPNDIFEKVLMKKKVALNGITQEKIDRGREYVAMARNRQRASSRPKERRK

Assay [1] has as its target Spa2CRU (S. cerevisiae) (UniProt P23201).
Assay [2] addresses T3, Msb4_(22-81)-Spa2CRU (S. cerevisiae) (UniProt Q12317+P23201).
In assay [3] the target is SHD1CRU (S. cerevisiae) (UniProt P23201).
The target of another assay is T4, Ste5CRU (S. cerevisiae) (UniProt P32917).
T4 sequence: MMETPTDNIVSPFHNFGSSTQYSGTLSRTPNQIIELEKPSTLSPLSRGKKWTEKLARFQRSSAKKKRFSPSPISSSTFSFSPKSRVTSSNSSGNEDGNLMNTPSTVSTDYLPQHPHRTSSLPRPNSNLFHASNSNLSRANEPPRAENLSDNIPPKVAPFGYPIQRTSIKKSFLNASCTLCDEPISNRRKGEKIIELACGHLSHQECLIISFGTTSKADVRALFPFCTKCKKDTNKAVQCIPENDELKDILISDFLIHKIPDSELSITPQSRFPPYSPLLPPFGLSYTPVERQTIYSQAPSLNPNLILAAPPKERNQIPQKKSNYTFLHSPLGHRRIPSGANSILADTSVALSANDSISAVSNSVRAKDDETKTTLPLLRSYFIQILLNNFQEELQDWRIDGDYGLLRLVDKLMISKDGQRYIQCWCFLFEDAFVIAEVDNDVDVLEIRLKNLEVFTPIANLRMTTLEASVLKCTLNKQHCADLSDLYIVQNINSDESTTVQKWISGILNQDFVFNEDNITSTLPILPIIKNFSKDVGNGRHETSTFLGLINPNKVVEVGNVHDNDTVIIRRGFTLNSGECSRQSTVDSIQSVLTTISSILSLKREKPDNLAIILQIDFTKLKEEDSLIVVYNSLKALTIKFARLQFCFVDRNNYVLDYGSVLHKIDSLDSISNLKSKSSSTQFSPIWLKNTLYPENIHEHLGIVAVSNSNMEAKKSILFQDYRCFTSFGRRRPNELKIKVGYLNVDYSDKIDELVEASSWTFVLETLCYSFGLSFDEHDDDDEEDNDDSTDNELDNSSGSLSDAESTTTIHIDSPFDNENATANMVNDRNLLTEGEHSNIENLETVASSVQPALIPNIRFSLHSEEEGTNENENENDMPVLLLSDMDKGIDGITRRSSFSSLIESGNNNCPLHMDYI

For assay [4], the target named is SHD1CRU (S. cerevisiae) (UniProt P23201). The source holds these as a separate data set.
Assay [5] concerns the target Spa2CRU (S. cerevisiae) (UniProt P23201). The source holds these as a separate data set.
Assay [6] addresses T3, Msb4_(22-81)-Spa2CRU (S. cerevisiae). This is another data set of the same source.
For assay [7], the target named is T5, Msb4_(Δ27-44)CRU (S. cerevisiae) (UniProt Q12317).
T5 sequence: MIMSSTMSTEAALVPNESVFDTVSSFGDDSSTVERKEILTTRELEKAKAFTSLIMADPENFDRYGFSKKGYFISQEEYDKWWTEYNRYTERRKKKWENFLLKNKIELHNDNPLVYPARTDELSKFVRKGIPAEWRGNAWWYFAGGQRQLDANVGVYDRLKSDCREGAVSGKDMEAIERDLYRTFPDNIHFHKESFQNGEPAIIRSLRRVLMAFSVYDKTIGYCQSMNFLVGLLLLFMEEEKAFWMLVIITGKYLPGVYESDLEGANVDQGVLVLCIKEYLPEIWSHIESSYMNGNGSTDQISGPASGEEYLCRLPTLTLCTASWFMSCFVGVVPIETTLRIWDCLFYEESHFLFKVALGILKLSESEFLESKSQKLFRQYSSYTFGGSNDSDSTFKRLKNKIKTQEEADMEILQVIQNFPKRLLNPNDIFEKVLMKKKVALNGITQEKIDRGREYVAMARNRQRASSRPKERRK

Assay [8] has as its target T6, Msb3_(Δ76-93)CRU (S. cerevisiae) (UniProt P48566).
T6 sequence: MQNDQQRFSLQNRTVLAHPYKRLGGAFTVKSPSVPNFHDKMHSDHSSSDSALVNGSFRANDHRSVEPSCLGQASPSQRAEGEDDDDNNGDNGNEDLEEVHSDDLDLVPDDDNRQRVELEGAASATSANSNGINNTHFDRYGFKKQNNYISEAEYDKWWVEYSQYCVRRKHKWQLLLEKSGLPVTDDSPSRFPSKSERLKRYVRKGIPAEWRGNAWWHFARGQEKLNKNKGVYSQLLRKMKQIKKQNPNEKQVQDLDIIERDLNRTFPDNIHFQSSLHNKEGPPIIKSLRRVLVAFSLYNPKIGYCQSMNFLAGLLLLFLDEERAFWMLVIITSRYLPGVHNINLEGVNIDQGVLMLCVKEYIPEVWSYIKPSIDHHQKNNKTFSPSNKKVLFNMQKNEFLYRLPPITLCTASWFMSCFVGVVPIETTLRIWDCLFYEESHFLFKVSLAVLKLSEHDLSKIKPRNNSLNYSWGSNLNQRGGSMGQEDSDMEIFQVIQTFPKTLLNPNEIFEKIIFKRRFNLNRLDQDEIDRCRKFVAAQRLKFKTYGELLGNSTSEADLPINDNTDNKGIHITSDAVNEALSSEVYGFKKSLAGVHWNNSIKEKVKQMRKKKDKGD

Regarding Nub-Spa2 (from UniProt P23201 1-1466), the binding entry in the assay with Msb3CRU (S. cerevisiae) and in the assay with Msb4CRU (S. cerevisiae) was “binds” each time.
With Nub-Aip5 (from UniProt P43597 1-1233), the binding result (in the assay with Spa2CRU (S. cerevisiae) [1]; in [2]) was “binds” in each case.

B1: Nub-Ste7_(Δ119-123) (protein, UniProt P06784)
chain: MFQRKTLQRRNLKGLNLNLHPDVGNNGQLQEKTETHQGQSRIEGHVMSNINAIQNNSNLFLRRGIKKKLTLDAFGDDQAISKPNTVVIQQPQNEPVLVLSSLSQSPCVSSSSSLSTPCSNNFGLSPSSTNSTPSTIQGLSNIATPVENEHSISLPPLEESLSPAAADLKDTLSGTSNGNYIQLQDLVQLGKIGAGNSGTVVKALHVPDSKIVAKKTIPVEQNNSTIINQLVRELSIVKNVKPHENIITFYGAYYNQHINNEIIILMEYSDCGSLDKILSVYKRFVQRGTVSSKKTWFNELTISKIAYGVLNGLDHLYRQYKIIHRDIKPSNVLINSKGQIKLCDFGVSKKLINSIADTFVGTSTYMSPERIQGNVYSIKGDVWSLGLMIIELVTGEFPLGGHNDTPDGILDLLQRIVNEPSPRLPKDRIYSKEMTDFVNRCCIKNERERSSIHELLHHDLIMKYVSPSKDDKFRHWCRKIKSKIKEDKRIKREALDRAKLEKKQSERSTH
With B1, the binding entry with SHD1CRU (S. cerevisiae) [3] is “no binding”; with Ste5CRU (S. cerevisiae) it was “binds”.

B2: Msb3_(71-130), the N-terminal extension of Msb3_(71-130)-SHD1CRU (domain or fragment, UniProt P48566 71-130)
chain: GQASPSEHDGNLSVIDLYGDEVESQRAEGEDDDDNNGDNGNEDLEEVHSDDLDLVPDDDN
B2: in the assay with SHD1CRU (S. cerevisiae) [4], the binding entry was “binds”.

B3: Nub-Pea2 (protein, UniProt P40091 1-420)
chain: MHKFDLELSRRANPLLFSAERYEEYPLKYDELKQYLLSQNPSHPHHNSRPYTSIDYFDYLLYRSKNDESEIDLDKKLVSEFALYYVQKEHLNSDDLNPTLNELLKLQPKSADWYEMMLRILESINTTGIDQLTKENNNSFPNSKRARSSTNMGGTDKFNKGAYHTDKADDDKNEILQELTSFLMSNSIQKGIDIKPIPLDDPVKFLKNGINSILDTCVSLEKNTSSPPISPNAAAIQEEDSSKKLEELETAFSDLQLAHNFLTKQFENDRAEYVQDIEKLTRTNRELQDKLLNNHSNLSKTEKKLHELEQENKELEKANNKLNSSRHNFGMSSPASSPVTWDPSSPSSVGSPTSGSGSRSLSIMTSEFKKVLTSTQRKYEKELSDEREHRFKLERELALLKNAEANTSLALNRDDPPDML
Take B3: the binding result (with Spa2CRU (S. cerevisiae) [5]; in assay [6]; with Msb3CRU (S. cerevisiae); with Msb4CRU (S. cerevisiae)) was “binds” throughout.

B4: Nub-Sec4 (protein, UniProt P07560 1-215)
chain: MSGLRTVSASSGNGKSYDSIMKILLIGDSGVGKSCLLVRFVEDKFNPSFITTIGIDFKIKTVDINGKKVKLQLWDTAGQERFRTITTAYYRGAMGIILVYDVTDERTFTNIKQWFKTVNEHANDEAQLLLVGNKSDMETRVVTADQGEALAKELGIPFIESSAKNDDNVNEIFFTLAKLIQEKIDSNKLVGVGNGKEGNISINSGSGNSSKSNCC
For the molecule B4, the binding entry (with Msb3CRU (S. cerevisiae); with Msb4CRU (S. cerevisiae); in [7]; in assay [8]) was “binds” throughout.
